Results as given in paper doi:10.1101/2021.06.01.446532.
These are yes or no findings as the source states them, for the method shown. Binding seen in cells or lysates may run through a third protein. Binding can be weak; no strength is given. Tags and fused reporters may be left off the sequences shown.

Target: T1, LRRC23-FLAG (UniProt O35125)
T1 sequence: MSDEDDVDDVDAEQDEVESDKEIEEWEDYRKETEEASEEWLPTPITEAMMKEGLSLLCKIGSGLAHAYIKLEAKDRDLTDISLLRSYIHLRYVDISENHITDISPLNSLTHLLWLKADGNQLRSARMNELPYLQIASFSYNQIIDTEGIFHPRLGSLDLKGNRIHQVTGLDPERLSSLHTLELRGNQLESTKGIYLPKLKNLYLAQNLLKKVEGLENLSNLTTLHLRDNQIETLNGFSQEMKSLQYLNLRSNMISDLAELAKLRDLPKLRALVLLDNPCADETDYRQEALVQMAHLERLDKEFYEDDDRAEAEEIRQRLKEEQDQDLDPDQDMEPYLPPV
Experiment: co-IP

| Substance | binding |
| --- | --- |
| RSPH3A-HA | binds |
| RSPH3B-HA | binds |
| RSPH22-HA | binds |
